Results deposited as PubChem BioAssay AID1259425 (University of Nebraska Medical Center, 2018)
Aim: 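Find knockdowns that reproduce the gene expression pattern seen when KSR1 is lost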 (primary screen). System: HCT116 human colon cancer cells. Knock-down reagent: siRNA pool against human genes, 50 nM siRNA. Read-out: 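After 50 nM siRNA pool, branched-DNA assay measures six marker transcripts per well, minus blank, normalised to the geometric mean of two housekeeping transcripts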. Scale: BNIP3L mRNA: higher = more BNIP3L transcript after knockdown; NDRG1 mRNA: higher = more NDRG1 transcript after knockdown; BNIP3 mRNA: higher = more BNIP3 transcript after knockdown; ALDOC mRNA: higher = more ALDOC transcript after knockdown; ACSL5 mRNA: higher = more ACSL5 transcript after knockdown.
Shown is an unselected part of about 14,000 reagents. Not given: the time to read-out.

The opening 4 records, to show the layout:
no.	Gene	BNIP3L mRNA, set 1	NDRG1 mRNA, set 1	BNIP3 mRNA, set 1	ALDOC mRNA, set 1	ACSL5 mRNA, set 1
1	RPL31	0.541	0.855	0.718	0.112	0.209
2	ZMYM4	0.151	0.257	0.228	0.0166	0.236
3	ELK3	0.177	0.19	0.858	0.0269	0.0946
4	RBBP8	0.189	1.03	0.262	0.029	0.227

The listing, repeating the preview:
no.	Gene	BNIP3L mRNA, set 1	NDRG1 mRNA, set 1	BNIP3 mRNA, set 1	ALDOC mRNA, set 1	ACSL5 mRNA, set 1
1	RPL31	0.541	0.855	0.718	0.112	0.209
2	ZMYM4	0.151	0.257	0.228	0.0166	0.236
3	ELK3	0.177	0.19	0.858	0.0269	0.0946
4	RBBP8	0.189	1.03	0.262	0.029	0.227
5	DGKE	0.15	0.0532	0.286	0.00937	0.241
6	PGK2	0.0706	0.122	0.236	0.00373	0.184
7	GALE	0.251	0.0523	0.263	0.0212	0.238
8	EMILIN1	0.262	0.178	0.313	0.0386	0.262
9	GDPD5	0.066	0.349	0.281	0.0178	0.161
10	GUCY2D	0.149	0.24	0.232	0.0125	0.121
11	CHML	0.125	0.155	0.269	0.0298	0.129
12	TTYH3	0.139	0.163	0.314	0.0265	0.0377
13	RNF8	0.0643	0.119	0.214	0.0252	0.0991
14	CUL7	0.136	0.407	0.411	0.0423	0.166
15	KCNJ11	0.122	0.0795	0.354	0.0144	0.0597
16	SCD	0.0857	0.931	0.188	0.0364	0.147
17	UGT2A1	0.129	0.336	0.301	0.0207	0.295
18	CEP162	0.0451	0.122	0.198	0.0368	0.13
19	BBS9	0.215	0.166	0.279	0.0492	0.218
20	KCND3	0.172	0.368	0.687	0.0314	0.308
21	UGT2A3	0.13	0.257	0.27	0.0222	0.198
22	CD1B	0.134	1.1	0.505	0.011	0.179
23	PLCB3	0.058	0.0803	0.272	0.00892	0.0964
24	RASSF2	0.0602	0.414	0.308	0.0129	0.267
25	CFAP97	0.136	0.219	0.501	0.031	0.253
26	PIGF	0.153	0.874	0.363	0.0465	0.288
27	SERF1A	0.205	0.207	0.358	0.0483	0.227
28	STEAP1	0.149	0.99	0.318	0.0283	0.313
29	ZBTB37	0.13	0.111	0.109	0.0576	0.278
30	FLCN	0.141	0.157	0.273	0.0348	0.197
31	RPA1	0.137	0.555	0.39	0.0458	0.263
32	ADGRA1	0.123	0.178	0.278	0.0249	0.0906
33	MGAT2	0.0582	0.45	0.294	0.0146	0.177
34	GABRE	0.137	0.343	0.242	0.0363	0.276
